According to PMC7795354 (Molecules, 2020):

Assay: general procedure: Fmoc solid-phase peptide synthesis; 2-chlorotrityl chloride resin; DIPCI/HOBt
Conditions: late stage modification step

Substance	step yield
^natGa-DOTA-EG4-IPLPPPRRPFFK	81%
^natGa-DOTA-aaaaa-IPLPPPRRPFFK	80%
^natGa-DOTA-ββ-IPLPPPRRPFFK	56%
^natGa-DOTA-aaa-IPLPPPRRPFFK	85%
^natGa-DOTA-EG2-IPLPPPRRPFFK	82%
^natGa-DOTA-ββββ-IPLPPPRRPFFK	58%
^natGa-DOTA-IPLPPPRRPFFK	75%

Same assay, conditions: whole synthesis

Substance	isolated yield
DOTA-EG2-IPLPPPRRPFFK	71%
DOTA-EG4-IPLPPPRRPFFK	48%
{DOTA}-IPLPPPRRPFFK	66.0%
DOTA-ββββ-IPLPPPRRPFFK	58%
DOTA-ββ-IPLPPPRRPFFK	78%
DOTA-aaa-IPLPPPRRPFFK	75%
DOTA-aaaaa-IPLPPPRRPFFK	79%

Where no end group is shown, it is not given here. The star is where a group is joined. DOTA = O=C(O)CN1CCN(CC(=O)O)CCN(CC(=O)*)CCN(CC(=O)O)CC1
